Results of single-concentration screens

Data taken from ChEMBL document CHEMBL3988442, “University of Dundee, Small-Polar-MMV Screening Library” (2021).

Results are given as percent effect.
How 0% and 100% were set is not recorded. Most values in the screen are low, and negative values occur.
This is an unselected part of the compounds tested.
Two or more numbers in one place are separate tests of the same structure; such repeats can differ widely.

Mtb glucose medium: 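Growth of Mycobacterium tuberculosis over 3 days (7H9 medium with glucose and tyloxapol); the read-out is not stated. Concentration: 50 µM. The record gives no direction; compounds that gave an IC50 in retests scored well above the rest, so higher reads as more growth inhibition. Of about 69,000 compounds tested this way, about 760 (1.1%) reached 50% or more in at least one test.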
Mtb cholesterol medium: 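Phenotypic screen: M. tuberculosis growth, cholesterol and DPPC medium, 4 days; the read-out is not stated. Compounds at 50 µM. Direction is inferred from retests: higher values go with more growth inhibition. Of about 69,000 compounds tested this way, about 370 (0.54%) reached 50% or more in at least one test.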

O=C(CCn1ccc2ccccc21)Nc1ccnn1CC1CCOC1 (stereo unspecified) read Mtb glucose medium: -7.301%; Mtb cholesterol medium: 1.063%.
CN(C)CC1CN(Cc2coc(-c3cccc(F)c3)n2)CCO1 (stereo unspecified) read Mtb glucose medium: 2.814%; Mtb cholesterol medium: -21.25%.
Cn1c(SCC(N)=O)nnc1-c1csc2c1CCCC2 read Mtb glucose medium: 46.14%; Mtb cholesterol medium: 35.19%.
Cc1nn(C)c(C)c1CN(C)CC1(O)CCCN(C)C1 (stereo unspecified) read Mtb glucose medium: -3.778%; Mtb cholesterol medium: -11.42%.
CCN1CC(C(=O)NCc2ccnc(-n3ccnc3C)c2)CC1=O (stereo unspecified) read Mtb glucose medium: 0.9199% and -0.6142%; Mtb cholesterol medium: -13.12%.
CCOc1ccc(C(=O)NCc2ccnc(N3CCN(C)CC3)c2)cn1 read Mtb glucose medium: 6.504% and -1.057%; Mtb cholesterol medium: 3.359%.
CCn1c(SC)nnc1C1CCN(C(=O)N2CCCC2)CC1 read Mtb glucose medium: -10.09%; Mtb cholesterol medium: 0.23% and 0.9578%.
Cc1cc(NC(=O)CN2CCc3nn(C)c(=O)cc3C2)on1 read Mtb glucose medium: 20.45% and -3.518%; Mtb cholesterol medium: -2.914%.
O=C(C1COCCO1)N1CCN(Cc2ccc3c(c2)CCO3)CC1 (stereo unspecified) read Mtb glucose medium: 8.751%; Mtb cholesterol medium: -4.56%.
CN(CCC(F)(F)F)c1nc2ccccc2c(=O)[nH]1 read Mtb glucose medium: 3.727% and 8.454%; Mtb cholesterol medium: -2.062%.
CCC(c1nc(C(C)C)nn1-c1ccccn1)n1cccn1 (stereo unspecified) read Mtb glucose medium: -17.21%; Mtb cholesterol medium: -11.4%.
Cc1ccccc1C1(C(=O)NCCN2CCCC(C)C2)CCOCC1 (stereo unspecified) read Mtb glucose medium: 2.019%; Mtb cholesterol medium: -26.8%.
CC(NC(=O)c1cccnc1N(C)C)c1ccccc1Cl (stereo unspecified) read Mtb glucose medium: -15.45%; Mtb cholesterol medium: -33.3%.
O=S(=O)(c1ccccc1)N1CCC2(CCCN2Cc2cccc(F)c2)C1 (stereo unspecified) read Mtb glucose medium: 3.595%; Mtb cholesterol medium: 1.466% and -3.088%.
CN(C(=O)CN1CCCC1=O)C1CCCN(C2Cc3ccccc3C2)C1 (stereo unspecified) read Mtb glucose medium: -18.31%; Mtb cholesterol medium: -5.19% and -4.152%.
COc1cc(Cc2nc3c([nH]2)CC(C)(C)CNC3=O)cc(OC)c1 read Mtb glucose medium: -30.25%; Mtb cholesterol medium: -20.01%.
[H][C@@]12CCC(=O)N(CCCOC)[C@]1([H])CCN(Cc1ncc[nH]1)C2 read Mtb glucose medium: -0.6935%; Mtb cholesterol medium: -13.62% and -1.21%.
COc1ccc(C2CCCN2C(=O)NCCn2ccnc2)cc1OC (stereo unspecified) read Mtb glucose medium: -16.32%; Mtb cholesterol medium: -5.792%.
COC1COC2(CCN(C(=O)c3cscn3)CC2)C1 (stereo unspecified) read Mtb glucose medium: -6.964% and -35.74%; Mtb cholesterol medium: -13%.
COc1ccc(-c2n[nH]c(C)c2CC(=O)NCC2CCOCC2)cc1 read Mtb glucose medium: -3.648%; Mtb cholesterol medium: -27.43%.
C[C@H](CCO)NS(=O)(=O)c1ccc(Br)cn1 read Mtb glucose medium: -14.12%; Mtb cholesterol medium: -10.17%.
CCCC1(CO)CCCN(c2ncnc3c2c(C)nn3C)C1 (stereo unspecified) read Mtb glucose medium: 10.67%; Mtb cholesterol medium: 16.43%.
Cc1nn(C)cc1C(=O)N1CCCC(c2nccn2CC2CCC2)C1 (stereo unspecified) read Mtb glucose medium: 1.029%; Mtb cholesterol medium: 34.84%.
CN1CCC(Cc2cnc3ccccc3c2)C1 (stereo unspecified) read Mtb glucose medium: -6.299%; Mtb cholesterol medium: -1.065%.
Cc1noc([C@@H](C)NCc2cccc(Cl)c2)c1C(=O)O.Cl read Mtb glucose medium: -9.302% and -6.053%; Mtb cholesterol medium: -21.4%.